From patent US20020156245A1 come the findings set out here.

Amino acid sequences for entries named in this document (tags omitted). A change or cut given only in a name is not applied to a line headed by its entry.
UniProt Q9Y6C5: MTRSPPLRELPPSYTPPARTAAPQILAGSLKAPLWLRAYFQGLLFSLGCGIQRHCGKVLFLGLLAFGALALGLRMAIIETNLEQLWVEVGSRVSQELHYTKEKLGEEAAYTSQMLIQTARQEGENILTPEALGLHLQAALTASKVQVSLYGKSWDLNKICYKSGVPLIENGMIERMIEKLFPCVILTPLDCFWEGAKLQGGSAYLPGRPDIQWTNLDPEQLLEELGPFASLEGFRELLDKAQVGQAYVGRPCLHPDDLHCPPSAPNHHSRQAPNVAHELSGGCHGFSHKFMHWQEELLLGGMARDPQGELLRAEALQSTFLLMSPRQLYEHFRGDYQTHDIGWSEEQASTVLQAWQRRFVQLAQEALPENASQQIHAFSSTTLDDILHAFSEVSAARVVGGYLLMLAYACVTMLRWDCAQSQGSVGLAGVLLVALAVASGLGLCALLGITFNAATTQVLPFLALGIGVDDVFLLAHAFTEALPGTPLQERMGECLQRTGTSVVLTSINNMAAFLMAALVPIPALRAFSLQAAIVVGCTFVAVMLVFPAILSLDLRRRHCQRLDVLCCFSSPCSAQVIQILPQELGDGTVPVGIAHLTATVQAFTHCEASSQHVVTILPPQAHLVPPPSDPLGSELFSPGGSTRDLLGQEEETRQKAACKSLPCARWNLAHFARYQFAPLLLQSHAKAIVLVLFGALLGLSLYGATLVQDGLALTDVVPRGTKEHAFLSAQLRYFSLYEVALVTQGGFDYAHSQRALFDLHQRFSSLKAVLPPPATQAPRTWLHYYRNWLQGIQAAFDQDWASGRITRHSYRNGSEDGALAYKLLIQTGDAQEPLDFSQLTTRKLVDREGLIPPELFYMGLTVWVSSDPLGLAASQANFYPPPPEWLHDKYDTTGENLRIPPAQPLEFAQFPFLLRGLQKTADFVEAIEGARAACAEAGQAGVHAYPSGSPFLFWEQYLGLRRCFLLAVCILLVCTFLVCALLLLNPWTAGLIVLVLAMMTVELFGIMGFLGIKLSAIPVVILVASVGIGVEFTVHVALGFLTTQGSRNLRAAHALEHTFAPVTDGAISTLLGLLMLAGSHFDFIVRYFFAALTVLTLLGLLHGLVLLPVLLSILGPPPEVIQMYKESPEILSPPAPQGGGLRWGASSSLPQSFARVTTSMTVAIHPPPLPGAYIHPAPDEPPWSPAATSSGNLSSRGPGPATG

Results are given in words; binding and its absence hold for the method and conditions named. Some binding calls cover weakened binding; strength is not graded here.

The target of this assay is human Ptch-2 (SEQ ID NO:2) (human) (UniProt Q9Y6C5). Briefly: competition with 100 pM 125I-Shh on transfected 293 cells.

In the case of “Dhh (SEQ ID NO:13) (from UniProt Q61488 23-198) (ligand)”, the binding entry is on record as “binds”.
